Assay results: the supplement of paper PMC6078165
± gives the standard deviation of the averaged measurements. Values are relative to the signal before dosing, not to a vehicle control; the signal also falls without drug.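 Labels refer to human fibroblasts, largely primary: uterine (C12385, HUF), lung (H6013), bone (Hs27A), adrenal (HADF), skin (WS1), plus mammary HMF and breast cancer-associated Hs343T. Cancer lines are basal-like or mesenchymal-like triple-negative breast cancer. The paper counts as hits responses shifting over 3x the replicate standard deviation. The tissue of the other fibroblasts is not given here.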

Test system: Hs578T
Assay: relative JC-1 red fluorescence (viability) vs pre-drug, coculture with fibroblast (fraction); higher = more viable cancer cells
Method: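 JC-1 labelled TNBC cells cocultured 1:1 (1,500 cells each) with CellTrace Violet stained primary or stromal fibroblasts in 384-well plates in FluoroBrite medium, treated with one of 42 anticancer drugs at 0.1, 1, 10 or 100 uM. JC-1 red fluorescence (mitochondrial integrity in cancer cells only) was read by plate reader every 8 h for 72 h. Values are normalised to each well's pre-drug value. The stock of one drug was tenfold lower, so its dose labels may be too high.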

COc1cc([C@@H]2c3cc4c(cc3[C@@H](O[C@@H]3O[C@@H]5CO[C@@H](c6cccs6)O[C@H]5[C@H](O)[C@H]3O)[C@H]3COC(=O)[C@H]23)OCO4)cc(OC)c1O [Teniposide]
relative JC-1 red fluorescence
Conditions	8 h	16 h	24 h	32 h	40 h	48 h	56 h	64 h	72 h
0.1 µM	0.89 ± 0.035	0.807 ± 0.023	0.763 ± 0.015	0.729 ± 0.015	0.671 ± 0.016	0.633 ± 0.0071	0.6087 ± 0.0042	0.5717 ± 0.0035	0.5639 ± 0.0042
1 µM	0.877 ± 0.023	0.794 ± 0.015	0.739 ± 0.0095	0.698 ± 0.023	0.63 ± 0.037	0.592 ± 0.047	0.592 ± 0.05	0.558 ± 0.061	0.554 ± 0.071

relative JC-1 red fluorescence
Conditions	8 h	16 h	24 h	32 h	40 h	48 h	56 h	64 h	72 h
0.1 µM, coculture fibroblast: C12385	0.778 ± 0.024	0.72113 ± 7e-05	0.698 ± 0.052	0.617 ± 0.054	0.567 ± 0.059	0.54 ± 0.07	0.515 ± 0.076	0.504 ± 0.082	0.506 ± 0.088
0.1 µM, coculture fibroblast: H6013	0.843 ± 0.0088	0.8075 ± 0.0031	0.765 ± 0.0098	0.739 ± 0.023	0.702 ± 0.034	0.682 ± 0.038	0.659 ± 0.04	0.652 ± 0.044	0.626 ± 0.044
0.1 µM, coculture fibroblast: H6019	0.792 ± 0.0099	0.759 ± 0.027	0.801 ± 0.079	0.711 ± 0.074	0.706 ± 0.092	0.702 ± 0.1	0.684 ± 0.1	0.681 ± 0.11	0.659 ± 0.12
0.1 µM, coculture fibroblast: H6076	0.88 ± 0.054	0.812 ± 0.047	0.801 ± 0.018	0.7827 ± 0.0037	0.7399 ± 0.0044	0.742 ± 0.02	0.743 ± 0.029	0.75 ± 0.033	0.757 ± 0.039
0.1 µM, coculture fibroblast: H6231	0.88 ± 0.031	0.786 ± 0.054	0.737 ± 0.033	0.701 ± 0.022	0.638 ± 0.027	0.613 ± 0.016	0.57 ± 0.022	0.553 ± 0.024	0.558 ± 0.011
0.1 µM, coculture fibroblast: HADF	0.8365 ± 0.0018	0.7884 ± 0.0018	0.7343 ± 0.0062	0.677 ± 0.006	0.645 ± 0.012	0.616 ± 0.029	0.589 ± 0.032	0.59 ± 0.045	0.574 ± 0.051
0.1 µM, coculture fibroblast: HCFa	0.8301 ± 0.0081	0.771 ± 0.023	0.713 ± 0.024	0.658 ± 0.034	0.591 ± 0.023	0.57 ± 0.029	0.535 ± 0.013	0.525 ± 0.0068	0.4978 ± 0.0017
0.1 µM, coculture fibroblast: HCPF	0.902 ± 0.037	0.816 ± 0.039	0.765 ± 0.02	0.735 ± 0.019	0.66 ± 0.0092	0.635 ± 0.017	0.6001 ± 0.0029	0.56992 ± 8.6e-05	0.553 ± 0.012
0.1 µM, coculture fibroblast: HHSteC	0.844 ± 0.017	0.7695 ± 0.0053	0.717 ± 0.016	0.667 ± 0.032	0.607 ± 0.048	0.574 ± 0.046	0.551 ± 0.037	0.537 ± 0.035	0.517 ± 0.034
0.1 µM, coculture fibroblast: HMF	0.826 ± 0.013	0.746 ± 0.028	0.702 ± 0.045	0.694 ± 0.052	0.64 ± 0.048	0.618 ± 0.037	0.592 ± 0.039	0.579 ± 0.037	0.581 ± 0.035
0.1 µM, coculture fibroblast: HPFa	0.889 ± 0.011	0.819 ± 0.047	0.769 ± 0.073	0.707 ± 0.075	0.667 ± 0.077	0.631 ± 0.084	0.582 ± 0.092	0.567 ± 0.096	0.542 ± 0.095
0.1 µM, coculture fibroblast: HUF	0.823 ± 0.011	0.731 ± 0.024	0.736 ± 0.079	0.638 ± 0.081	0.586 ± 0.1	0.571 ± 0.11	0.548 ± 0.12	0.556 ± 0.13	0.561 ± 0.13
0.1 µM, coculture fibroblast: Hs27A	0.859 ± 0.017	0.8122 ± 0.0016	0.763 ± 0.016	0.725 ± 0.023	0.663 ± 0.039	0.644 ± 0.048	0.613 ± 0.069	0.609 ± 0.086	0.573 ± 0.096
0.1 µM, coculture fibroblast: Hs343T	0.8434 ± 0.0042	0.765 ± 0.017	0.72779 ± 0.0007	0.719 ± 0.015	0.656 ± 0.011	0.643 ± 0.012	0.629 ± 0.019	0.626 ± 0.023	0.653 ± 0.033
0.1 µM, coculture fibroblast: WS1	0.7872 ± 0.0072	0.703 ± 0.022	0.673 ± 0.034	0.573 ± 0.019	0.514 ± 0.033	0.494 ± 0.037	0.466 ± 0.053	0.462 ± 0.069	0.463 ± 0.077
1 µM, coculture fibroblast: C12385	0.805 ± 0.026	0.714 ± 0.018	0.655 ± 0.012	0.566 ± 0.024	0.5 ± 0.028	0.467 ± 0.029	0.441 ± 0.034	0.427 ± 0.04	0.423 ± 0.039
1 µM, coculture fibroblast: H6013	0.832 ± 0.036	0.807 ± 0.055	0.769 ± 0.075	0.74 ± 0.093	0.72 ± 0.11	0.712 ± 0.12	0.699 ± 0.14	0.694 ± 0.13	0.674 ± 0.15
1 µM, coculture fibroblast: H6019	0.788 ± 0.027	0.708 ± 0.042	0.677 ± 0.029	0.583 ± 0.039	0.534 ± 0.022	0.5007 ± 0.0044	0.469 ± 0.0038	0.44 ± 0.021	0.415 ± 0.037
1 µM, coculture fibroblast: H6076	0.872 ± 0.012	0.8124 ± 0.0026	0.799 ± 0.039	0.797 ± 0.052	0.774 ± 0.071	0.779 ± 0.086	0.786 ± 0.1	0.792 ± 0.12	0.806 ± 0.14
1 µM, coculture fibroblast: H6231	0.875 ± 0.029	0.809 ± 0.016	0.745 ± 0.023	0.69 ± 0.012	0.626 ± 0.011	0.6 ± 0.014	0.559 ± 0.00087	0.5335 ± 0.004	0.526 ± 0.019
1 µM, coculture fibroblast: HADF	0.866 ± 0.054	0.823 ± 0.069	0.785 ± 0.1	0.737 ± 0.13	0.729 ± 0.16	0.732 ± 0.19	0.712 ± 0.21	0.717 ± 0.22	0.706 ± 0.23
1 µM, coculture fibroblast: HCFa	0.8613 ± 0.0086	0.803 ± 0.011	0.7423 ± 0.0061	0.7007 ± 0.004	0.6511 ± 0.0043	0.6411 ± 0.0042	0.6066 ± 0.0052	0.606 ± 0.017	0.564 ± 0.049
1 µM, coculture fibroblast: HCPF	0.919 ± 0.013	0.83 ± 0.02	0.773 ± 0.011	0.722 ± 0.017	0.6591 ± 0.0059	0.6372 ± 0.0039	0.6353 ± 0.0053	0.5913 ± 0.0028	0.5771 ± 0.0049
1 µM, coculture fibroblast: HHSteC	0.846 ± 0.02	0.796 ± 0.035	0.752 ± 0.026	0.703 ± 0.028	0.665 ± 0.023	0.642 ± 0.028	0.631 ± 0.031	0.618 ± 0.041	0.597 ± 0.058
1 µM, coculture fibroblast: HMF	0.8589 ± 0.0037	0.767 ± 0.012	0.707 ± 0.017	0.6663 ± 0.0056	0.6014 ± 0.003	0.569 ± 0.011	0.547 ± 0.015	0.52 ± 0.0073	0.514 ± 0.011
1 µM, coculture fibroblast: HPFa	0.862 ± 0.021	0.792 ± 0.042	0.738 ± 0.061	0.675 ± 0.088	0.642 ± 0.078	0.614 ± 0.088	0.571 ± 0.085	0.555 ± 0.084	0.521 ± 0.086
1 µM, coculture fibroblast: HUF	0.838 ± 0.04	0.713 ± 0.00073	0.6995 ± 0.0013	0.5951 ± 0.0027	0.539 ± 0.01	0.511 ± 0.0052	0.482 ± 0.0062	0.483 ± 0.0082	0.4834 ± 0.0037
1 µM, coculture fibroblast: Hs27A	0.853 ± 0.013	0.82895 ± 0.00044	0.7791 ± 0.0046	0.7409 ± 0.0034	0.6946 ± 0.0056	0.6766 ± 0.0032	0.642 ± 0.0076	0.6459 ± 0.003	0.605 ± 0.0066
1 µM, coculture fibroblast: Hs343T	0.8738 ± 0.0075	0.771 ± 0.0088	0.724 ± 0.023	0.686 ± 0.034	0.62 ± 0.046	0.598 ± 0.05	0.581 ± 0.059	0.568 ± 0.065	0.578 ± 0.078
1 µM, coculture fibroblast: WS1	0.802 ± 0.036	0.705 ± 0.027	0.6905 ± 0.0019	0.581 ± 0.0073	0.522 ± 0.022	0.512 ± 0.025	0.49 ± 0.031	0.492 ± 0.039	0.499 ± 0.049
